Assay results taken from paper PMC8043254.
Substitutions are numbered along the chain they refer to. No constants are given. Whether binding was seen depends on the method and setting. In cells and extracts the contact can be indirect. Some binding calls cover weakened binding; strength is not graded here. Sequences can lack the tags named with a protein.

Legend:
[1] = molecular target: T1, GST-Eps8L2_181-299 (human) (UniProt Q9H6S3); experiment: pull-down; GST-Eps8L2 or its fragments (20 ug) on glutathione beads, incubated with U2OS lysates (600 ug total protein); 25 mM Tris-HCl, 100 mM NaCl, 1% Triton X-100, 10% glycerol; 3 h at 4°C; only the target purified
T1 sequence: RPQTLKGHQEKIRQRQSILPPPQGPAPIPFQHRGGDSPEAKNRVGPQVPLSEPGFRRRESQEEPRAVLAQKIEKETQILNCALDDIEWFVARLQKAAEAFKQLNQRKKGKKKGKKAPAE

[2] = molecular target: T2, GST-Eps8L2_367-496 (human) (UniProt Q9H6S3); experiment: as above
T2 sequence: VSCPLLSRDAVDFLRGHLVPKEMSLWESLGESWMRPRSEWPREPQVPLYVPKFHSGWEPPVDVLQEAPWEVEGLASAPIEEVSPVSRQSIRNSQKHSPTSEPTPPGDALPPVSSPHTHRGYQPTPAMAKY

GST-Eps8L2 (human) = molecular target: T3, GST-Eps8L2 (human) (UniProt Q9H6S3); experiment: as above
T3 sequence: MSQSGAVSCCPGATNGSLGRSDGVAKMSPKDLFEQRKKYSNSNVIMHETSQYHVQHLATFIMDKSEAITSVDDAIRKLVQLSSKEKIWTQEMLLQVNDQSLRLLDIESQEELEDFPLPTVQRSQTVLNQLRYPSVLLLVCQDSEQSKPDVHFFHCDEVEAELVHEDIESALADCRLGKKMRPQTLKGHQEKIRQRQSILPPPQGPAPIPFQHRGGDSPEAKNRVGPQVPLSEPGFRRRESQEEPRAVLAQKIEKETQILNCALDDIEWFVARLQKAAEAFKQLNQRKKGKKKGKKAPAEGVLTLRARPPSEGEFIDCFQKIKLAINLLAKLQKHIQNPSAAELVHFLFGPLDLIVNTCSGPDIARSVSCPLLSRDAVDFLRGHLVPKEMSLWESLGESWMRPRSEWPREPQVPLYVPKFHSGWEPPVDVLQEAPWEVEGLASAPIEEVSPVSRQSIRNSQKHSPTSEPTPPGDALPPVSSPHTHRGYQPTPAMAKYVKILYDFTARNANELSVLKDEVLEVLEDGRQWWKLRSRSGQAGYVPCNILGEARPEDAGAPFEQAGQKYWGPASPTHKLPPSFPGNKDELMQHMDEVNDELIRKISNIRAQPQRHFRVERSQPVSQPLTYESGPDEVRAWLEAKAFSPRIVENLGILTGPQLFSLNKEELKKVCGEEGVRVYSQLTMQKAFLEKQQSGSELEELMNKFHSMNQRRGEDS

[3] = molecular target: T4, endogenous Eps8L2 (human (endogenous in SKBR-3)) (UniProt Q9H6S3); experiment: co-IP; SKBR-3 lysate (endogenous Eps8L2) mixed with lysates of transfected U2OS cells; Eps8L2 antibody and Protein A/G magnetic beads; overnight at 4°C; washes up to 150 mM KCl
T4 sequence: T3 sequence

FLAG-Eps8L2 (human) = molecular target: T5, FLAG-Eps8L2 (human) (UniProt Q9H6S3); experiment: co-IP; FLAG-Eps8L2 overexpressed in U2OS cells, then incubated with GFP constructs overexpressed in U2OS cells
T5 sequence: T3 sequence

Measured: binding

B1: Ctdnep1_D67E-GFP (enzyme, UniProt Q3TP92 1-244)
chain: MMRTQCLLGLRTFVAFAAKLWSFFIYLLRRQIRTVIQYQTVRYDILPLSPLSRNRLAQVKRKILVLELDETLIHSHHDGVLRPTVRPGTPPDFILKVVIDKHPVRFFVHKRPHVDFFLEVVSQWYELVVFTASMEIYGSAVADKLDNSRSILKRRYYRQHCTLELGSYIKDLSVVHSDLSSIVILDNSPGAYRSHPDNAIPIKSWFSDPSDTALLNLLPMLDALRFTADVRSVLSRNLHQHRLW
binds: all assays above

B2: Ctdnep1-GFP (enzyme, UniProt Q3TP92 1-244)
chain: B1 chain with E67D
binds: all assays above
